# The list shows a part of the results. These are further read-outs of the screen, such as a control signal, another cell line or another target. No call is given for them. The list favours compounds with an active or inconclusive main result. The note in brackets gives the kind of curve behind each potency; many fits are weak.
# Assay: qHTS Assay to Find Inhibitors of Chronic Active B-Cell Receptor Signaling
# Conditions: ABC-DLBCL IkBa-CBG/CBR reporter, luminescence ratio (green luciferase fused to IkBa over red control in TMD8 lymphoma cells), 4 h
# In short: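 TMD8 human ABC-DLBCL cells with doxycycline-inducible IκBα–green luciferase fusion and unfused red luciferase, in 0.5% FBS medium; compounds up to 46 uM, 4 h at 37C. Green/red luminescence ratio, filter-overlap corrected, fitted to concentration-response curves.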
# [1] = measured here: CBR red luminescence, cell number
# [2] = measured here: IkBa-CBG green luminescence
SMILES,AC50 [1],AC50 [2]
C=CCNc1ncnc2c1cnn2-c1cccc(C)c1,"9.2 µM [falling, partial curve]",
CCOc1ccc(C(=O)CCN2CCOCC2)cc1,"35.5 µM [falling, single point]",
O=C(/C=C/c1ccc(Br)cc1)NC(=O)c1ccccc1O,"3.16 µM [falling, full curve]",
CCCCCCn1c(SCCN2CCOCC2)nc2c1c(=O)[nH]c(=O)n2C,"15.8 µM [rising, partial curve]",
COc1cc(-c2nc3ccccn3c2/N=C/c2cccc(OC)c2O)ccc1O,"3.16 µM [falling, full curve, poor fit]",
O=C(Nc1ccc(N2CCCC2)cc1)c1ccccc1[N+](=O)[O-],"8.91 µM [falling, partial curve]",
CC(CC(=O)O)CC(=O)Nc1cc(C(F)(F)F)cc(C(F)(F)F)c1 (configuration not stated),"1.12 µM [rising, full curve, poor fit]",
N/C(=N\OC(=O)c1ccco1)c1ccccn1,"25.1 µM [falling, single point]",
CCOC(=O)Cc1nc2cc(Cl)ccc2o1,"10 µM [rising, partial curve]",
Cc1cc(COc2ccccc2)oc1C(=O)O,"1.58 µM [falling, full curve, poor fit]",
O=C(c1cccc(OC(F)F)c1)N1CCN(c2ncccn2)CC1,"35.5 µM [rising, single point]",
CCOC(=O)N1CC=C2C(C#N)=C(N)C(C#N)(C#N)[C@H](c3ccc(OCC)c(OCC)c3)[C@H]2C1,"29.1 µM [falling, single point]",
Cn1ccs/c1=N\C(=O)Nc1ccccc1,"17.8 µM [falling, partial curve]",
O=C(NC1=NN(c2ccccc2)CC1)Nc1ccccc1F,"14.1 µM [falling, partial curve]",
C/C(=N\NC(=O)c1cc(O)ccc1O)c1cccc(NC(=O)c2ccc(Cl)cc2)c1,"22.4 µM [falling, single point]",
COCCCN1C(=O)C(=O)/C(=C(/O)c2ccccc2)C1c1ccc2c(c1)OCO2 (configuration not stated),"12.6 µM [rising, partial curve, poor fit]",
COC(=O)COc1ccc2c(c1)O/C(=C\c1cccc([N+](=O)[O-])c1)C2=O,"5.62 µM [rising, partial curve]",
COc1cc(/C=C(/C(=O)c2cccs2)c2nc3ccccc3[nH]2)cc(OC)c1O,"2.59 µM [falling, partial curve]","20.6 µM [rising, partial curve, poor fit]"
COc1ccc(Cc2nnc(NC(=O)c3ccccc3F)s2)cc1OC,"7.08 µM [falling, partial curve, poor fit]",
CCn1c(SCC(=O)N2CCN(c3ccccc3)CC2)nc2c(c1=O)SC(C)C2 (configuration not stated),,"23.1 µM [rising, partial curve, poor fit]"
COc1ccc(-c2csc3nc(C)nc(N4CCC(C)CC4)c23)cc1OC,"11.2 µM [rising, partial curve]",
CCOc1ccc(NC(=O)CSc2nnc(-c3cc(C)[nH]n3)n2N)cc1,"0.501 µM [rising, full curve, poor fit]",

# Entries above containing fluorine, in the order listed:
SMILES,AC50 [1],AC50 [2]
CC(CC(=O)O)CC(=O)Nc1cc(C(F)(F)F)cc(C(F)(F)F)c1 (configuration not stated),"1.12 µM [rising, full curve, poor fit]",
O=C(c1cccc(OC(F)F)c1)N1CCN(c2ncccn2)CC1,"35.5 µM [rising, single point]",
O=C(NC1=NN(c2ccccc2)CC1)Nc1ccccc1F,"14.1 µM [falling, partial curve]",
COc1ccc(Cc2nnc(NC(=O)c3ccccc3F)s2)cc1OC,"7.08 µM [falling, partial curve, poor fit]",

# Continuation:

SMILES,AC50 [1],AC50 [2]
Cc1nc2ccccc2n1C1CC(=O)N(N(C)C)C1=O (configuration not stated),"29.1 µM [falling, single point]",
COc1ccc(NC(=O)Cc2ccc(Cl)c(Cl)c2)cn1,"2 µM [rising, full curve, poor fit]",
O=C(CSC1=NC(=O)C(Cc2ccccc2)C(=O)N1)NC1CCCCC1 (configuration not stated),"29.1 µM [falling, single point]",
CCCc1nc2scc(-c3ccc(C)cc3)c2c(=O)n1N,"18.4 µM [rising, partial curve, poor fit]",
Cc1noc(C)c1CSc1ncnc2ccccc12,"22.4 µM [rising, partial curve]","11.2 µM [falling, partial curve]"
COc1cc(/C=C/C(=O)N(C)CC(=O)Nc2ccccc2Br)cc2c1OCCO2,"16.4 µM [falling, single point]",
COc1cccc(/C=C2\CCc3ccccc3C2=O)c1,"35.5 µM [falling, single point]",
O=C(NC(Cc1ccccc1)C(=O)NC1CC1)OCc1ccccc1 (configuration not stated),"11.2 µM [rising, partial curve]",
O=C(Nc1nc(-c2ccccn2)cs1)c1ccc(-c2ccccc2F)o1,"25.9 µM [falling, single point]",
CC(C)C(C)NC(=O)COC(=O)c1cc(S(=O)(=O)N(C)C)ccc1N1CCCC1 (configuration not stated),"6.31 µM [rising, partial curve, poor fit]",
O=c1c2ccccc2oc2nc(-c3ccco3)n(CCc3ccccc3)c(=O)c12,"12.6 µM [falling, partial curve, poor fit]",
Cc1ccc(C2Oc3ccccc3C3=C2C(c2cccs2)n2ncnc2N3)cc1 (configuration not stated),"12.6 µM [falling, partial curve, poor fit]",
CN1c2ccccc2-c2nc3ccccc3n2C1c1cccs1 (configuration not stated),"25.9 µM [falling, single point]",
COc1ccccc1-n1c(SCC(=O)Nc2ccc(NC(C)=O)cc2)nc2c([nH]c3ccccc32)c1=O,"5.01 µM [falling, full curve]",
CN(C(=O)c1ccc(-c2nn(C)c(=O)c3ccccc23)cc1)C1CCCCC1,,"15.8 µM [falling, partial curve, poor fit]"
O=C(Nc1ccc(Br)c2ccccc12)c1ccc2ccccc2c1O,"35.5 µM [falling, single point]",
O=C(COc1ccc(F)cc1)N1CCC(c2ccccc2)C1 (configuration not stated),"23.1 µM [falling, single point]",
CC(C)OC(=O)c1ccc(NC(=O)c2cccc(-n3cnnn3)c2)cc1,"0.82 µM [rising, partial curve]",
O=[N+]([O-])c1cc2oc3c(c2c(C=NCc2ccncc2)c1O)CCCC3,"29.1 µM [rising, single point]",
CC1=NN(c2ccccc2)C(=O)/C1=C/c1c(O)n(-c2ccc(F)cc2)[nH]c1=O,"13 µM [falling, single point]",
Cc1ccc(/C=N\Nc2cn[nH]c(=O)c2Cl)cc1,"0.92 µM [falling, full curve, poor fit]",
COc1ccccc1NS(=O)(=O)c1ccc(O)c(C(=O)OCC(=O)Nc2ccccc2F)c1,"11.2 µM [falling, partial curve, poor fit]",

SMILES,AC50 [1],AC50 [2]
COC(=O)c1ccc(/C=C/C(=O)c2cccc(OC)c2)cc1,"10.3 µM [rising, partial curve, poor fit]","23.1 µM [falling, single point]"
CC1CCN(c2ccc(C(=O)Nc3ccc4c(c3)OCO4)cc2[N+](=O)[O-])CC1,"6.51 µM [rising, single point]",
COC(=O)Cc1c(C)c2ccc(OCC(=O)c3ccc(OC)c(OC)c3)cc2oc1=O,"0.0891 µM [rising, full curve, poor fit]",
NC(=O)c1ccc(N2CCCCC2)c(N2C(=O)C3C4C=CC(C4)C3C2=O)c1 (configuration not stated),"15.8 µM [rising, single point]",
COC(=O)c1ccc(NC(=O)CNc2ccccc2)cc1,"2.24 µM [falling, full curve]",
Cc1ccc(N=Cc2nc(-c3ccco3)oc2O)cc1,"7.08 µM [falling, partial curve]",
O=C(NCc1ccc2c(c1)OCO2)C1COc2ccccc2O1 (configuration not stated),"14.6 µM [rising, partial curve]",
O=C(Nc1nc(-c2ccc3c(c2)OCO3)cs1)C1COc2ccccc2O1 (configuration not stated),"16.4 µM [falling, partial curve, poor fit]",
CN(C)CCCn1c2c(c(SCC(=O)Nc3cccc4ccccc34)nc1=O)CCC2,"13 µM [falling, partial curve, poor fit]",
COC(=O)c1sc(NC(=O)/C=C/c2ccc(C)cc2)nc1C,"13 µM [falling, partial curve]",
O=C1CCCN1S(=O)(=O)c1ccccc1,"3.16 µM [rising, partial curve, poor fit]",
Cc1ccc(NC(=O)Nc2ccc3c(c2)N(C)C(=O)CS3)nc1,"25.9 µM [rising, partial curve, poor fit]",
CCN(c1ccccc1)S(=O)(=O)c1ccc(Cl)c(NC(=O)CN(C)C2CCN(C)CC2)c1,"35.5 µM [falling, single point]",
NS(=O)(=O)c1ccc(N=Nc2ccc(=O)[nH]c2O)cc1,"0.562 µM [falling, full curve, poor fit]",
COC(=O)c1ccc(NC(=S)NC(=O)c2c(-c3ccccc3)noc2C)cc1,"22.4 µM [rising, single point]",
O=C(CSc1ccc(-c2ccccn2)nn1)Nc1nccs1,"6.31 µM [falling, single point]",
CCCn1nc(C(=O)Nc2nnc(C3CC3)s2)c2ccccc2c1=O,"2.06 µM [rising, partial curve, poor fit]",
O=C1CCCC2=C1C1(O)C(=O)c3ccccc3C1(O)O2 (configuration not stated),"6.51 µM [rising, single point]",
CCN(CC)CCNCC1C(=O)O[C@@H]2C[C@@]3(C)CCC[C@H](C)C3=C[C@H]12 (some centres not stated),"15.8 µM [falling, partial curve]",
Cc1nc(NCCCN2CCOCC2)c2oc3ccccc3c2n1,,"14.1 µM [rising, partial curve, poor fit]"

# Source: PubChem BioAssay AID493014 (National Center for Advancing Translational Sciences (NCATS), 2011)
